Test results reported in the supplement of paper PMC10849652.
This is one part of the list.

The chains behind the UniProt entries cited, without tags or fusion partners. Where a name states a change or a piece, a line headed by the entry shows the natural chain unless it says otherwise.
UniProt Q15843, whole entry, looked up: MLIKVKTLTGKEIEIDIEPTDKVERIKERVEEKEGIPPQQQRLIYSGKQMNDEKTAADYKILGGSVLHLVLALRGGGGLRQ
UniProt Q92597: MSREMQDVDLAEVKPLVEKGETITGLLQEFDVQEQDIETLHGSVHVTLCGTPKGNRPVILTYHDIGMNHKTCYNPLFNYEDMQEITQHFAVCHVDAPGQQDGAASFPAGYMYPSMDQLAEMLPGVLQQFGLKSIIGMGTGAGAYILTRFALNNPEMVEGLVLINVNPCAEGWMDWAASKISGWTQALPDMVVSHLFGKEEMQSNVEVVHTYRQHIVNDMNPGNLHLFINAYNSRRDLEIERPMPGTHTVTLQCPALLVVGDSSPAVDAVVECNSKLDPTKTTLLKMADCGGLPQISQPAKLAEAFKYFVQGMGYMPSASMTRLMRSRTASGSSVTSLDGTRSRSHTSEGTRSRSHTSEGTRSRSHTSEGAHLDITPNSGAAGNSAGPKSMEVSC
UniProt Q9BU61: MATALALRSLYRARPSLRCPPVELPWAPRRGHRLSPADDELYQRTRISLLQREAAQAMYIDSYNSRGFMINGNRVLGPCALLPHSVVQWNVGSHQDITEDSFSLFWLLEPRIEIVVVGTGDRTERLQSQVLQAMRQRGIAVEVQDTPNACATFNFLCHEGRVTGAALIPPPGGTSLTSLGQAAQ
UniProt P25963: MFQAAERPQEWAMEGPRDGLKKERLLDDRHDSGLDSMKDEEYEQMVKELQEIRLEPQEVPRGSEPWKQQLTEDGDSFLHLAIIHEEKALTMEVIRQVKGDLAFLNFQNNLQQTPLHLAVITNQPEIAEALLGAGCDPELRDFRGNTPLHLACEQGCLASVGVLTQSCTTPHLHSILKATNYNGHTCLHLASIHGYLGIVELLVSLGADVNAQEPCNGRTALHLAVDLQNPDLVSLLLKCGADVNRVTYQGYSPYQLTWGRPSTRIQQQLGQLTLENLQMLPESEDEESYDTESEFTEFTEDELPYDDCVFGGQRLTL
UniProt P30414: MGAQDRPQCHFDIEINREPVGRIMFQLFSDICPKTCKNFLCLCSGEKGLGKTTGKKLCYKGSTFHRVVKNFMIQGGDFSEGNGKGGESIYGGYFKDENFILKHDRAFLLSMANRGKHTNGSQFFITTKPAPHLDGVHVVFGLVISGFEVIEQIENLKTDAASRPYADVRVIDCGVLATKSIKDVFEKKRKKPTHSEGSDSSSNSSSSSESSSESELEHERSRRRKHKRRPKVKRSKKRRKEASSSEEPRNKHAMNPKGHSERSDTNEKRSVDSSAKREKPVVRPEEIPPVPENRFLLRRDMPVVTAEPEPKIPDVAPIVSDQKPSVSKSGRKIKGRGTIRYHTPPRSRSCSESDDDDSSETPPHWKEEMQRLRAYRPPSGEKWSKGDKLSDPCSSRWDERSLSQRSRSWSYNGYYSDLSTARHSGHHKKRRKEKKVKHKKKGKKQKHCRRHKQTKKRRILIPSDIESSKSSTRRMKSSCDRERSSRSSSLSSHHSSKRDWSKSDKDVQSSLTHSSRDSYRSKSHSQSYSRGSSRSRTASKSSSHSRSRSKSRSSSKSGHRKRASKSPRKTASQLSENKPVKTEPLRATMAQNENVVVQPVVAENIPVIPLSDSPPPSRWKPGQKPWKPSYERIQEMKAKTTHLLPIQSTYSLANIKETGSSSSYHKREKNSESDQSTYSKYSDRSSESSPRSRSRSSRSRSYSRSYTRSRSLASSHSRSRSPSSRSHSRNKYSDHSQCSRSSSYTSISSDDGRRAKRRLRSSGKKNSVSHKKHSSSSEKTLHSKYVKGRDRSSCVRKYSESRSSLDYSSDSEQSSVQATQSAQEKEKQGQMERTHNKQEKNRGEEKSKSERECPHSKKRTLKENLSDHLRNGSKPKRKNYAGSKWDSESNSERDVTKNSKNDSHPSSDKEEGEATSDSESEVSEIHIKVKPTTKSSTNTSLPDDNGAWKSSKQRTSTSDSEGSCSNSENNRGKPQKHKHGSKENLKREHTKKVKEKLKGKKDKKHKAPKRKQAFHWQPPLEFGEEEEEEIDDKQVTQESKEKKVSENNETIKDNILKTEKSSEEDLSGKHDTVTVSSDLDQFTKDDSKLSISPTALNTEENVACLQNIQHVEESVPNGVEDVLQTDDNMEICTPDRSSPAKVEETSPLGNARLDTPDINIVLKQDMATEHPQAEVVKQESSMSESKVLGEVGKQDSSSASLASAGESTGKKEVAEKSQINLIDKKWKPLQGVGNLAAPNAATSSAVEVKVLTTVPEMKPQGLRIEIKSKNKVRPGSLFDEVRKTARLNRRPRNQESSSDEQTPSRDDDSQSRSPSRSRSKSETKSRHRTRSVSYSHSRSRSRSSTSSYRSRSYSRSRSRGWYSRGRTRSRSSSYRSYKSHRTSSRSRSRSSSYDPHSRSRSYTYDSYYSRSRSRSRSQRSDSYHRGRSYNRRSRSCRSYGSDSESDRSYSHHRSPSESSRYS
UniProt Q9BT67: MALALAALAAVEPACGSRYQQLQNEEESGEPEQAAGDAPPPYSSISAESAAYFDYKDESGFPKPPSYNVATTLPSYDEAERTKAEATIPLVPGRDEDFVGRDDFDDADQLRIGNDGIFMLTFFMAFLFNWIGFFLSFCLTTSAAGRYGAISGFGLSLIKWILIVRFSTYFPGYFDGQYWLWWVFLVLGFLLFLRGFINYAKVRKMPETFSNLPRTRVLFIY
UniProt Q0ZGT2: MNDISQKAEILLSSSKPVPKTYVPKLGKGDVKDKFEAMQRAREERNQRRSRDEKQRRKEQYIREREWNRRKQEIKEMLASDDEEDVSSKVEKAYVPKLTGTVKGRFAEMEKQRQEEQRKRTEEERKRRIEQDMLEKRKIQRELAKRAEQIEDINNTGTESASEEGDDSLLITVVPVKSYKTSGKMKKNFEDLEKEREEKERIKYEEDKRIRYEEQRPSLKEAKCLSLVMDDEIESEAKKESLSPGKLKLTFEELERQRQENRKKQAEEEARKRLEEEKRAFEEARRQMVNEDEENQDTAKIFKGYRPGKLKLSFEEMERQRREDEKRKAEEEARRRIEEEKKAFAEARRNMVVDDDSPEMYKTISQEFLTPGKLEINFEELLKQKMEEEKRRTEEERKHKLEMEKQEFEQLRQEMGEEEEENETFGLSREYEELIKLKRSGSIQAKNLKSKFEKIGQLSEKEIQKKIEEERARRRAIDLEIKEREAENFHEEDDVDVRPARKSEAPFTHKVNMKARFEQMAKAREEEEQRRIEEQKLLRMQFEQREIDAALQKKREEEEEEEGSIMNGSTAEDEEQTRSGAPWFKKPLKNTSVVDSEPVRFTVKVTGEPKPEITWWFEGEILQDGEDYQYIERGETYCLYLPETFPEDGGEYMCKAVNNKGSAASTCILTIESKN
UniProt O95167, whole entry, looked up: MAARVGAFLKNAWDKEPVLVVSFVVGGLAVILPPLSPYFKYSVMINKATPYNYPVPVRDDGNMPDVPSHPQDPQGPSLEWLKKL
UniProt P23511, whole entry, looked up: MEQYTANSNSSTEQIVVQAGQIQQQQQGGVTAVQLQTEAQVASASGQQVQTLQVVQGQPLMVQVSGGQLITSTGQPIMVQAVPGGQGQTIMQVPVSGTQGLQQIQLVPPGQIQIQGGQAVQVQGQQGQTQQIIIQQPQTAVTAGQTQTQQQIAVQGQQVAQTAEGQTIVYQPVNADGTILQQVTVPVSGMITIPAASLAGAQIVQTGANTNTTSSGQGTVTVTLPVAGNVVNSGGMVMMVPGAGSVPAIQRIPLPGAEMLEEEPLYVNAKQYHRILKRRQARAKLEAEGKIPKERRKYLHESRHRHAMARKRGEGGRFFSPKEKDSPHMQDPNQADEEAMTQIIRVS
UniProt Q9BPW8: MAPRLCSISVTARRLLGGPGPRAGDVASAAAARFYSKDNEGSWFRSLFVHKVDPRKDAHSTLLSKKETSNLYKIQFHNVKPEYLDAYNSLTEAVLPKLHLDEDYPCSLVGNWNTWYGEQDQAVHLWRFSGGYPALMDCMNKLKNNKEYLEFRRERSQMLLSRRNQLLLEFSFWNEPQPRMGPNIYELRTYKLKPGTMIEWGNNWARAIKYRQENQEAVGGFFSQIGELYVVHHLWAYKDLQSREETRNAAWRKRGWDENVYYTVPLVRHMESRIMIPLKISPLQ
UniProt Q9NYR9: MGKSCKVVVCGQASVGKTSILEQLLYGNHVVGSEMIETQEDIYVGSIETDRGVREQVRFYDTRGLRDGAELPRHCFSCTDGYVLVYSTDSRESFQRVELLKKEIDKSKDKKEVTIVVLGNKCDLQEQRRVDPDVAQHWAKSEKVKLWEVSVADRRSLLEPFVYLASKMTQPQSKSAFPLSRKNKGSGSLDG

What was measured:
Assay in all cases: log2 fold change, soluble protein after heating vs DMSO (PISA); higher = thermal stabilisation; K562 lysate, 10 uM; active = over 0.2 and 3.5 SD of the protein, either way, in both replicates (recomputed)
erlotinib = compound: C#Cc1cccc(Nc2ncnc3cc(OCCOC)c(OCCOC)cc23)c1 [erlotinib]
Outline: (§1)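 K562 pellets were dounce-homogenised in PBS pH 7.4 containing 1 mM MgCl2, and the crude extract, at 1 mg/mL protein, was exposed to 10 μM compound for 30 min. Aliquots were heated for 3 min across 48°C-58°C, pooled, brought to 0.5% NP-40 at 4°C and spun at 21,000xg for 90 min, with the supernatant taken as soluble protein. TMTpro 16plex LC-MS/MS with equalised channel sums quantified that protein. Values are log-two fold changes in thermal stability relative to solvent controls, taken from duplicates.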

[1] = compound: C/C(=N\NC(=O)C1=CC(=CC=C1)S(=O)(=O)N2CCOCC2)/C3=C(C=CC(=C3)Cl)O
Outline: as §1

[2] = compound: C1=CC(=CC=C1C2=NC3=C(N2)C=C(C=C3)C(=O)N)OC4=CC=C(C=C4)Cl
Outline: as §1

[3] = compound: C1=CC2=C(C=CC(=C2)/C=C\3/C(=O)NC(=NCC4=CC=CS4)S3)N=C1
Outline: as §1

[4] = compound: C1=CC2=NC=CN=C2C=C1/C=C/3\C(=O)NC(=O)S3
Outline: as §1

[5] = compound: C1=CC=C(C=C1)C2=NC(=C(N2)C3=CC=NC=C3)C4=CC(=C(C=C4)Cl)O
Outline: as §1

[6] = compound: C1=CC=C2C(=C1)C3=NNC4=CC=CC(=C43)C2=O
Outline: as §1

[7] = compound: C1CCN(C1)C(=O)NC2=CC=CC(=C2)NC3=NC=C(C(=N3)NCCC4=CN=CN4)Br
Outline: as §1

[8] = compound: C1CN(CCC1(CC2=CC=C(C=C2)Cl)N)C3=NC=NC4=C3C=CN4
Outline: as §1

IRAK-1-4 Inhibitor I = compound: C1COCCN1CCN2C3=CC=CC=C3N=C2NC(=O)C4=CC(=CC=C4)[N+](=O)[O-] [IRAK-1-4 Inhibitor I]
Outline: as §1

ibrutinib = compound: C=CC(=O)N1CCC[C@@H](n2nc(-c3ccc(Oc4ccccc4)cc3)c3c(N)ncnc32)C1 [ibrutinib]
Outline: as §1

[9] = compound: CC(=O)c1cnc2ccc(-c3cc(Cl)c(O)c(Cl)c3)nc2c1N[C@H]1CC[C@H](CN(C)C)CC1
Outline: as §1

ralimetinib = compound: CC(C)(C)Cn1c(N)nc2ccc(-c3[nH]c(C(C)(C)C)nc3-c3ccc(F)cc3)nc21 [ralimetinib]
Outline: as §1

[10] = compound: CC(C)(O)CC(=O)NCCn1ccc2ncnc(Nc3ccc(Oc4cccc(C(F)(F)F)c4)c(Cl)c3)c21
Outline: as §1

[11] = compound: CC(C)C1=C2N=C(C=C(N2N=C1)NCC3=CC=CC=C3)NCCCCCCN
Outline: as §1

[12] = compound: CC1=C(C(CC(=O)N1)C2=CC=C(C=C2)C(F)(F)F)C(=O)NC3=C(C=C4C(=C3)C=NN4)F
Outline: as §1

[13] = compound: CC1=C(C2=C(C=C1)C(=O)C3=CC=CC=C3N2CCCN)C
Outline: as §1

[14] = compound: CC1=C(C=C(C=C1)NC(=O)C2=CC(=CC=C2)C(C)(C)C#N)NC3=CC4=C(C=C3)N=CN(C4=O)C
Outline: as §1

[15] = compound: CC1=C(C=C(C=C1)NC(=O)C2=CC(=CC=C2)N(C)C)NC(=O)C3=CC=C(C=C3)O
Outline: as §1

[16] = compound: CC1=CC=C(C=C1)SC2=C3C=C(SC3=CN=C2)C(=O)N
Outline: as §1

Measured: log2 fold change

NEDD8 (UniProt Q15843)
inactive: erlotinib 0.018 | [1] -0.019 | [2] 0 | [3] 0.031 | [4] -0.047 | [5] 0.011 | [6] -0.053 | [7] 0.026 | [8] 0.07 | IRAK-1-4 Inhibitor I 0 | ibrutinib 0.059 | [9] -0.013 | ralimetinib -0.001 | [10] 0 | [11] 0.011 | [12] -0.01 | [13] 0.005 | [14] 0.077 | [15] 0.025 | [16] -0.029

NDRG1 (UniProt Q92597)
inactive: erlotinib -0.042 | [1] -0.127 | [2] -0.014 | [3] -0.004 | [4] 0.396 | [5] -0.022 | [6] 0.095 | IRAK-1-4 Inhibitor I 0.111 | ibrutinib 0.048 | [9] 0.028 | ralimetinib -0.015 | [10] -0.039 | [11] 0.049 | [13] 0.016 | [14] -0.014 | [15] 0.094 | [16] -0.08

NDUFAF3 (UniProt Q9BU61)
inactive: erlotinib -0.011 | [1] 0.011 | [2] -0.057 | [3] -0.013 | [4] 0.096 | [5] -0.045 | [6] -0.042 | [7] 0.013 | [8] 0.019 | IRAK-1-4 Inhibitor I 0.003 | ibrutinib -0.007 | [9] -0.005 | ralimetinib 0.048 | [10] -0.015 | [11] -0.074 | [12] -0.014 | [13] 0.024 | [14] 0.041 | [15] -0.045 | [16] 0.007

NFKBIA (UniProt P25963)
inactive: erlotinib 0.166 | [1] 0.047 | [2] 0.023 | [3] 0.11 | [4] 0.108 | [6] -0.057 | ibrutinib 0.187 | [9] -0.002 | [11] 0.237 | [12] 0.022 | [13] -0.09 | [14] -0.006 | [16] -0.062

NKTR (UniProt P30414)
inactive: erlotinib 0.025 | [1] -0.141 | [2] -0.076 | [3] -0.256 | [4] -0.023 | [5] -0.018 | [6] -0.255 | [7] -0.18 | [8] 0.091 | IRAK-1-4 Inhibitor I 0.039 | ibrutinib 0.085 | [9] -0.114 | ralimetinib -0.143 | [10] 0.019 | [11] 0.057 | [12] 0.028 | [13] -0.203 | [15] 0.025 | [16] -0.072

NDFIP1 (UniProt Q9BT67)
inactive: erlotinib 0.002 | [1] -0.206 | [2] 0.109 | [3] 0.021 | [4] -0.111 | [5] 0.037 | [6] -0.094 | IRAK-1-4 Inhibitor I 0.039 | ibrutinib 0.119 | [9] 0.052 | ralimetinib 0.077 | [10] 0.001 | [11] -0.059 | [12] 0.086 | [13] -0.252 | [14] -0.004 | [15] -0.079 | [16] 0.189

NEU1 (UniProt Q99519)
inactive: erlotinib -0.035 | [1] -0.102 | [2] 0.052 | [3] -0.042 | [4] 0.008 | [5] 0.086 | [6] -0.074 | [7] -0.039 | [8] 0.023 | IRAK-1-4 Inhibitor I -0.008 | ibrutinib -0.022 | [9] -0.038 | ralimetinib 0.01 | [10] -0.001 | [11] -0.033 | [12] -0.096 | [13] 0.008 | [14] -0.024 | [15] 0.063 | [16] 0.141

NEXN (UniProt Q0ZGT2)
inactive: erlotinib 0.091 | [1] -0.011 | [2] -0.019 | [3] -0.067 | [4] -0.154 | [5] -0.144 | [6] -0.049 | [7] -0.255 | [8] 0.28 | IRAK-1-4 Inhibitor I -0.133 | ibrutinib 0.173 | [9] -0.008 | ralimetinib 0.257 | [10] 0.057 | [11] 0.066 | [12] -0.012 | [13] -0.065 | [15] 0.101 | [16] -0.017

NDUFA3 (UniProt O95167)
inactive: erlotinib 0.011 | [1] -0.036 | [2] -0.045 | [3] 0.017 | [4] -0.108 | [5] -0.008 | [6] -0.115 | [7] -0.042 | [8] 0.006 | IRAK-1-4 Inhibitor I -0.011 | ibrutinib 0.001 | ralimetinib -0.047 | [10] -0.047 | [11] 0.002 | [12] 0.001 | [13] -0.002 | [14] 0.072 | [15] 0.071

NFYA (UniProt P23511)
inactive: erlotinib -0.005 | [1] -0.055 | [2] 0.031 | [3] 0.016 | [4] -0.081 | [5] -0.016 | [6] -0.011 | [7] -0.025 | [8] -0.027 | IRAK-1-4 Inhibitor I 0.007 | ibrutinib 0.077 | [9] -0.046 | ralimetinib -0.014 | [10] 0 | [11] 0.071 | [13] 0.027 | [14] 0.022 | [15] -0.131 | [16] -0.076

NIPSNAP1 (UniProt Q9BPW8)
inactive: erlotinib -0.064 | [1] 0.084 | [2] -0.121 | [3] -0.023 | [4] 0.013 | [5] 0.017 | [6] -0.047 | [7] -0.013 | [8] -0.044 | IRAK-1-4 Inhibitor I -0.003 | ibrutinib 0.037 | [9] 0.023 | ralimetinib 0.054 | [10] 0.03 | [11] 0.107 | [12] 0.069 | [13] -0.026 | [14] 0.033 | [15] 0.013 | [16] 0.004

NKIRAS2 (UniProt Q9NYR9)
inactive: erlotinib 0.09 | [1] -0.03 | [2] 0.017 | [3] -0.031 | [4] 0.01 | [5] -0.011 | [6] -0.12 | [7] 0.076 | [8] 0.035 | IRAK-1-4 Inhibitor I 0.055 | ibrutinib -0.023 | [9] -0.033 | ralimetinib -0.019 | [10] -0.025 | [11] -0.013 | [12] 0.048 | [13] -0.058 | [14] 0.1 | [15] 0.01 | [16] 0.052
